Data on three substances can be found in article PMC2778012.

Chains of the proteins cited; added tags and fusions are not shown. Lines headed by an entry give the natural chain unless they say otherwise; changes in a name come on top. A line that says so, or that is headed by a name, gives the form on record, which may keep a tag or linker.
UniProt Q8C6B2: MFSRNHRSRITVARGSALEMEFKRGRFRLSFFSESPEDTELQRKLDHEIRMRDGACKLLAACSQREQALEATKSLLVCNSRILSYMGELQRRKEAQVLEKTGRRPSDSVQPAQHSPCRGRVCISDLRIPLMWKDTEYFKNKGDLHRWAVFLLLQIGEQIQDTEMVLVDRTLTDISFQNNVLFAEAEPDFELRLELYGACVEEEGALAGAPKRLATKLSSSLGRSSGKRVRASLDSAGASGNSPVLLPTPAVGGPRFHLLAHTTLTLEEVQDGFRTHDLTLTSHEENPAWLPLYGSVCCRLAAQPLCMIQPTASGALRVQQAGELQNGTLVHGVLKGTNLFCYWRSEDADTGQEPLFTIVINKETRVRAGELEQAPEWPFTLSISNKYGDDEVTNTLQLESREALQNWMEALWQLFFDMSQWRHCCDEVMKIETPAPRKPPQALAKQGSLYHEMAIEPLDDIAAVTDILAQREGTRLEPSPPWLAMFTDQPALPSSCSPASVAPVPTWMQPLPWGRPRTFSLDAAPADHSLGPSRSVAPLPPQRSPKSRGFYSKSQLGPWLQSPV
UniProt P61586: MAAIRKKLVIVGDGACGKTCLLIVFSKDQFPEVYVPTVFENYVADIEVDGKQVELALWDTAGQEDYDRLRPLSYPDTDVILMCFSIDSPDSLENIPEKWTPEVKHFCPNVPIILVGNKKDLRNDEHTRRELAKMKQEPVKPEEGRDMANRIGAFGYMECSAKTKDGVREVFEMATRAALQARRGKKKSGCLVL
C16/20A myc-RhoA (non-targeted) (P61586, form named): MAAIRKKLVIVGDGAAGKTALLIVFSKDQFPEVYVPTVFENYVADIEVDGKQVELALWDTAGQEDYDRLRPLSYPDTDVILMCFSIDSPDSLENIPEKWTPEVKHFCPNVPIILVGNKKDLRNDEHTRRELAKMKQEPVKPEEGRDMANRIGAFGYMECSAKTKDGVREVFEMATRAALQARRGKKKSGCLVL
UniProt P61589: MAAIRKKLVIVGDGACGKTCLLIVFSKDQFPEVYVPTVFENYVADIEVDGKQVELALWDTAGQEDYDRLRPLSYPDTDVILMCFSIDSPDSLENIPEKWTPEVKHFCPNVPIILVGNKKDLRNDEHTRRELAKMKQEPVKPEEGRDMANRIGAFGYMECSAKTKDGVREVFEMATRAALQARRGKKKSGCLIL

Results are given in words; binding and its absence hold for the method and conditions named. Binding seen in cells or lysates may run through a third protein. Binding can be weak; no strength is given.

The target of the test is glutathione S-transferase (GST)-Rho binding domain (RBD) of Rhotekin (UniProt Q8C6B2). The test is described as follows: pull-down; RhoA activity assay: clarified cell lysates (Buffer A: 50 mM Tris pH 7.6, 500 mM NaCl, 1% Triton X-100, 0.1% SDS, 0.5% deoxycholate, 10 mM MgCl2) incubated with GST-RBD beads, washed three times with ice-cold Buffer B, bound fraction blotted with anti-RhoA or myc antibody; cells serum-starved or in serum, treated with peroxide (0.1-10 uM), washout, antimycin A with or without NAC, FBS or thrombin; only the target purified.
In the case of “C16/20A myc-RhoA (non-targeted) (from UniProt P61586 1-193)”, the binding entry is “binds”. In the case of “endogenous RhoA (from UniProt P61589 1-193)” it was “binds”; in that of “wt myc-RhoA (non-targeted) (from UniProt P61586 1-193)”, “binds”.
